Measured values: US8574925B2, “Fluorescence analysis method using fluorescent-activating antibodies” (Hamamatsu Photonics K.K., priority 2002, dated 2013)

Key:
[1] = test system: anti-MG-Ins Fab; test: Calibration curve: insulin concentration vs MG fluorescence intensity with anti-MG-Ins Fab and malachite green; format: binding, guinea pig; settings: 1 μM anti-MG-Ins Fab, 0.4 μM MG
Description: A calibration curve, indicating the relationship between the insulin concentration and fluorescence intensity for a fixed amount (1 μM) of the anti-MG-Ins Fab and a fixed amount (0.4 μM) of MG, was prepared as follows. Since the insulin used forms aggregate of a few molecules because of containing zinc, the insulin was dissolved in advance in PB containing SDS at a final concentration of 0.1% to dissociate the aggregate. The insulin solution thus obtained was thereafter run through a gel permeation column (Fast Desaliting Column HR 10/10, made by Pharnacia), equilibrated using PBS. The insulin solution from which SDS was thus removed was used in the following quantification. • (1) The fluorescence spectrophotometer was set to an excitation wavelength of 620 nm and a fluorescence wavelength of 650 nm and the temperature of the cell holder was maintained at a fixed temperature (25° C.). • (2) 2 ml (A=2 ml) of an antibody-dye solution, containing 1 μM (Y=1 μM) of the anti-MG-Ins Fab and 0.4 μM (Z=0.4 μM) of MG, were prepared (with phosphate buffered saline (pH 7.2, PBS) as the solvent) (S101). • (3) The antibody-dye solution thus obtained was placed in a standard fluorescence measurement cell. This cell was set in the fluorescence spectrophotometer. The solution in the cell was stirred for 30 seconds with a micro stirring bar. […]

[2] = test system: anti-MG-Ins Fab; test: Calibration curve: insulin concentration vs AO fluorescence intensity with anti-MG-Ins Fab and auramine O; format: binding, guinea pig; settings: 2 μM anti-MG-Ins Fab, 0.4 μM AO
Description: A calibration curve was prepared for insulin concentrations in the range of 0 to 7.7 μM in the same manner as described above in [1-10-1] other than the changes of setting the anti-MG-Ins Fab concentration to 2 μM, using 0.4 μM of auramine O in place of 0.4 μM of malachite green, setting the excitation wavelength to 400 nm, and setting the fluorescence wavelength to 520 nm.

Substance: insulin
- detection sensitivity [1]: approx. 0.1 μM
- low insulin concentration at which quantification is possible [1]: approximately 0.13 μM
- detection sensitivity [2]: approx. 0.1 μM
- low insulin concentration at which quantification is possible [2]: approximately 0.13 μM
